{
  "sequences": {"note": "Protein sequences, listed by entry. Tags and fused reporters are not part of them. Lines headed by an entry give the natural chain unless they say otherwise; changes in a name come on top.", "UniProt P62140, whole entry": "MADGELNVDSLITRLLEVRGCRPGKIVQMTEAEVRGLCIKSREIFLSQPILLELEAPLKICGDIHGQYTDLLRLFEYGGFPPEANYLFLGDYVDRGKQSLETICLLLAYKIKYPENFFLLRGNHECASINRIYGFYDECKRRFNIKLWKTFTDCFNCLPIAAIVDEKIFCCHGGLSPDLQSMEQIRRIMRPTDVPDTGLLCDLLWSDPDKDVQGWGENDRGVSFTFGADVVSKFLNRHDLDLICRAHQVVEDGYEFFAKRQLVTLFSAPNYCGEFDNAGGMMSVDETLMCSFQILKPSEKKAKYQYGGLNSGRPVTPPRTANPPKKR", "UniProt P78316": "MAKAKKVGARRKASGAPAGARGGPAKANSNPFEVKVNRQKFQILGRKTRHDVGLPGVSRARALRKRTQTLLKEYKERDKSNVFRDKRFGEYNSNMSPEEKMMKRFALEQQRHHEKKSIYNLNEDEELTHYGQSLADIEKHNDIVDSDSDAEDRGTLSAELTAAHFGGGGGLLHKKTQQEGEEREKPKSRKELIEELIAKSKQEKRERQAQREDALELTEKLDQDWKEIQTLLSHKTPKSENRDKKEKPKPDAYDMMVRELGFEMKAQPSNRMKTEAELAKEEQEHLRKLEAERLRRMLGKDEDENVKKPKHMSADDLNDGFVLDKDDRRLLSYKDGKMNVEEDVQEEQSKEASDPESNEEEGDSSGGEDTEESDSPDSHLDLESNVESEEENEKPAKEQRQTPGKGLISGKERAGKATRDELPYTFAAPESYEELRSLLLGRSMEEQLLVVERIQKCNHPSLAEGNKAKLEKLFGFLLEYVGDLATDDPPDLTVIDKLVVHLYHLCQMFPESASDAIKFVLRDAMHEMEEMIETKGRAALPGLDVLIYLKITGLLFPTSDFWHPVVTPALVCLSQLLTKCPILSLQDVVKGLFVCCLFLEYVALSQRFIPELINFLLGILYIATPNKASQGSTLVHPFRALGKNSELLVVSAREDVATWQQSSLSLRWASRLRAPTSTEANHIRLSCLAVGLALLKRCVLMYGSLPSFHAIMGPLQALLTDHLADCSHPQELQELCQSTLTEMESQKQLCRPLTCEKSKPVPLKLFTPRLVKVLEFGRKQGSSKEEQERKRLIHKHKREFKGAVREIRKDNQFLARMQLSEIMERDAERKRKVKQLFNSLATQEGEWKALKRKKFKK", "UniProt P61201": "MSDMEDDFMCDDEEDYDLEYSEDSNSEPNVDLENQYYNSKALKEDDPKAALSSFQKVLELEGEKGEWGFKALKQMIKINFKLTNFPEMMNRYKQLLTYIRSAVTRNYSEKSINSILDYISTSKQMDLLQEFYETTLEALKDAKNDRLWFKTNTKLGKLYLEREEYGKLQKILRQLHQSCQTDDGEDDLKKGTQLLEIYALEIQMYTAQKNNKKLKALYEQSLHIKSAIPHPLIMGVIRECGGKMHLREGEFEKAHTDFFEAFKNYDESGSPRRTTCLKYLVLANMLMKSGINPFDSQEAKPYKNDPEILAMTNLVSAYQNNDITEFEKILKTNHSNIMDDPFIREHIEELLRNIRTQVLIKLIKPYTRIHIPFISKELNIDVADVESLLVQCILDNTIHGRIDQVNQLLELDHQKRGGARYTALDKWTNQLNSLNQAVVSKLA", "UniProt P55081": "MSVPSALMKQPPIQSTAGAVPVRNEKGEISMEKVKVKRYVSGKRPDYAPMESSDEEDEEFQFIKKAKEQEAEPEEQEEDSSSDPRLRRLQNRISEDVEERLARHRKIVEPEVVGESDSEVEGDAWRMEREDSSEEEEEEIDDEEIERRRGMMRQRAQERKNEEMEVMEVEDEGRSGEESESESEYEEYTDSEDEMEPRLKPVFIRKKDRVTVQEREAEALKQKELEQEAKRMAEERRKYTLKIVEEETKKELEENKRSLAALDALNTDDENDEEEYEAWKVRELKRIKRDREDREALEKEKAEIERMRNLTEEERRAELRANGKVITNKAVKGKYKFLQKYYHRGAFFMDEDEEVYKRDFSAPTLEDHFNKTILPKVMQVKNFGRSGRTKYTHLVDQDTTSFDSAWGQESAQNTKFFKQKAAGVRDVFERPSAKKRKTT", "UniProt P55916": "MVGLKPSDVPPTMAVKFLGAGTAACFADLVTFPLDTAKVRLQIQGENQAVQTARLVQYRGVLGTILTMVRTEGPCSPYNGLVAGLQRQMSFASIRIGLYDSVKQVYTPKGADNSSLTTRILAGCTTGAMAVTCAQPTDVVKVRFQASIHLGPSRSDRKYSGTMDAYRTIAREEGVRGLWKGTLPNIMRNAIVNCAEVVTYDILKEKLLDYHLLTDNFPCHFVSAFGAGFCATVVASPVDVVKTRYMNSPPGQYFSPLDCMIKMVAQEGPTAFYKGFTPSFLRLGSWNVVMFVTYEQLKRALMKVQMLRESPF", "UniProt P63208, whole entry": "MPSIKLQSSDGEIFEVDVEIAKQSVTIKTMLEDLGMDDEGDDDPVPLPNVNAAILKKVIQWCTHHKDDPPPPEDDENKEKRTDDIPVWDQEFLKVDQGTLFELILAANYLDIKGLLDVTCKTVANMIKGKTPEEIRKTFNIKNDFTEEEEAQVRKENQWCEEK", "UniProt P60174, whole entry": "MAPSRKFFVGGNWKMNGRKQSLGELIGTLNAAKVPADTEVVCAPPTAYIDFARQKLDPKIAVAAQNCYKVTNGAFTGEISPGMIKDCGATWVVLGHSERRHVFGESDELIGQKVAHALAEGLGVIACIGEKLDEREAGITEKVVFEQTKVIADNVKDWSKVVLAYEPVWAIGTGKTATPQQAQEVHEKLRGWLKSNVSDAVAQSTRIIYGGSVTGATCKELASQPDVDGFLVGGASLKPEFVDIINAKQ", "UniProt P62879, whole entry": "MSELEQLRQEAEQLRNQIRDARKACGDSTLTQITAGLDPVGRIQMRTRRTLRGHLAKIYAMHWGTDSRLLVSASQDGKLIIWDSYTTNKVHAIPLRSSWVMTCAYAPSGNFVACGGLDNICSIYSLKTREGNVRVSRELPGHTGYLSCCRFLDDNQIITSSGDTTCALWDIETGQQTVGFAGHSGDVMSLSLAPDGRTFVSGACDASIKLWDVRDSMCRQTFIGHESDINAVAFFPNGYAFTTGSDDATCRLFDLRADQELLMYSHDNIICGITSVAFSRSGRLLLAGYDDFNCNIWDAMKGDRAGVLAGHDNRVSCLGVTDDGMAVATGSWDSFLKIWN", "UniProt P55957": "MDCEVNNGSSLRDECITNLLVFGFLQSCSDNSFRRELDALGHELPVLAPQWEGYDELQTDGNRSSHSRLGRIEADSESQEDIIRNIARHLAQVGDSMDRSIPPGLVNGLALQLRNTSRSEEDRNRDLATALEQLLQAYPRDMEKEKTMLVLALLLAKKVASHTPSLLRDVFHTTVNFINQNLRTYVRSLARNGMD", "UniProt P61923": "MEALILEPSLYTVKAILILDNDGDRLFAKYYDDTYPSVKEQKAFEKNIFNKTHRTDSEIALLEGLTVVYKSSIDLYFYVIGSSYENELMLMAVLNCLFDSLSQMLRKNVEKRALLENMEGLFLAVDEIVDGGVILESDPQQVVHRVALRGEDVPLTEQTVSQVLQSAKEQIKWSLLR", "UniProt P84085": "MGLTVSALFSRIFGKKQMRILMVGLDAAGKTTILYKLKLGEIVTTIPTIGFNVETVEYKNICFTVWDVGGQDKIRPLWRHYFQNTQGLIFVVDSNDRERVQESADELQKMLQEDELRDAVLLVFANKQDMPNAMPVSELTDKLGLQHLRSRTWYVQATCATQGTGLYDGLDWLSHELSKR", "UniProt P63241": "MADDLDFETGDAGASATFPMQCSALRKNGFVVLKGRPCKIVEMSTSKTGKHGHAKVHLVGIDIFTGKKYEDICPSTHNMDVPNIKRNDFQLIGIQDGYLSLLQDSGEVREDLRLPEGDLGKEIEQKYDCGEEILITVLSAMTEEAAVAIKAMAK", "UniProt P82909": "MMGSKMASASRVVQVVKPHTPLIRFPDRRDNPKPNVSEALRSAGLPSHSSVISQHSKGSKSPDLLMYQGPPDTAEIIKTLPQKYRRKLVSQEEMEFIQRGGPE", "UniProt P57729": "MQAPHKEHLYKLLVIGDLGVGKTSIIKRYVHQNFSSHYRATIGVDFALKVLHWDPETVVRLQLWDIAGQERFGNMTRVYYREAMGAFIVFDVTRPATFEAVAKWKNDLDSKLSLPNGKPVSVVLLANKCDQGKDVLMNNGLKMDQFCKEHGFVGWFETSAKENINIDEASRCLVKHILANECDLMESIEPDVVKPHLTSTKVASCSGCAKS", "UniProt P56645": "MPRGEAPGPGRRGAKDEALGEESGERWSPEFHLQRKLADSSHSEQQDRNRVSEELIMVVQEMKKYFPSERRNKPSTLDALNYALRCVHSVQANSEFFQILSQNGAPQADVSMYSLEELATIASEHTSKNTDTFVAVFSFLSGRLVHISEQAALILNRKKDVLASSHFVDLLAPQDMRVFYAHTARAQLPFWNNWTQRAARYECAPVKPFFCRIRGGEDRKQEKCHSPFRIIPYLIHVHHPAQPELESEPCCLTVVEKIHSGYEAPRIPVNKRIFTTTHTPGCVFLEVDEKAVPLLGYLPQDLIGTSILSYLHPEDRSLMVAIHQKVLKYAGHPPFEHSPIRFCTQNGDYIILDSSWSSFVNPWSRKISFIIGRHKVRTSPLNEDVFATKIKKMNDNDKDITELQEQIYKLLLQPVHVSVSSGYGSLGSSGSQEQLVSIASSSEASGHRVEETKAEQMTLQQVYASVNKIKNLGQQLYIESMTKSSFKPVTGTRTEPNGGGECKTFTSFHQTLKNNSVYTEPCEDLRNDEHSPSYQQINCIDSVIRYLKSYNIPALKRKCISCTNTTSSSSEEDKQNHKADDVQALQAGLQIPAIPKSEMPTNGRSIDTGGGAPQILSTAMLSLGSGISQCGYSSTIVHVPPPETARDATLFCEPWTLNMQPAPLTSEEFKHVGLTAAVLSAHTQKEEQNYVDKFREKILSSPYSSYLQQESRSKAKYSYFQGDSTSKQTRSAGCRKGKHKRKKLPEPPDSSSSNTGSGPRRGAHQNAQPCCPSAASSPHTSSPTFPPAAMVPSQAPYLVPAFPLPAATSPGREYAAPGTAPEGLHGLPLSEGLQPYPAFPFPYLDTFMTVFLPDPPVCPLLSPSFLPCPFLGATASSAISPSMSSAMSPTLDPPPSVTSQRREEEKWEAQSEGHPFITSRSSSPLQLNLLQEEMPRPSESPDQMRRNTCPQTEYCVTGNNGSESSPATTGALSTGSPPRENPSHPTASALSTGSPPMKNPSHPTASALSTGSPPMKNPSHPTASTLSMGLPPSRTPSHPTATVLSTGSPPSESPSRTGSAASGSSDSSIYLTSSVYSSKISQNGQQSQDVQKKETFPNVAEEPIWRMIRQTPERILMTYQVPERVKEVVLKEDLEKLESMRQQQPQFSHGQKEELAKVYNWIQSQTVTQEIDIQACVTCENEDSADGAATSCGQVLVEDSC", "UniProt P57682": "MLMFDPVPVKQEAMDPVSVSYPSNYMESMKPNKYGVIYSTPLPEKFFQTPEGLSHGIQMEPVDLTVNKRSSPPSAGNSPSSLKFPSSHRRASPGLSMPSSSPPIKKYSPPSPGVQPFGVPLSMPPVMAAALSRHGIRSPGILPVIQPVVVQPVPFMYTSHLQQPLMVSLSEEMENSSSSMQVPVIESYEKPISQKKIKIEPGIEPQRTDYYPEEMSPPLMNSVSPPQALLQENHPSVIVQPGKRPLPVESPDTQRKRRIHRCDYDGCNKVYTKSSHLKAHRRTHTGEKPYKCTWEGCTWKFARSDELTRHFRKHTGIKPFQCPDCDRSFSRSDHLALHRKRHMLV", "UniProt P84103": "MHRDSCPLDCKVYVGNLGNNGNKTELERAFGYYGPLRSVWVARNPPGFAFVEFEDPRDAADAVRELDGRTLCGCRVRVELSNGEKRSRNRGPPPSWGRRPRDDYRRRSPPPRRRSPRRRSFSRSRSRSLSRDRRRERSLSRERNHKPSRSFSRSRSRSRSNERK", "UniProt P61026": "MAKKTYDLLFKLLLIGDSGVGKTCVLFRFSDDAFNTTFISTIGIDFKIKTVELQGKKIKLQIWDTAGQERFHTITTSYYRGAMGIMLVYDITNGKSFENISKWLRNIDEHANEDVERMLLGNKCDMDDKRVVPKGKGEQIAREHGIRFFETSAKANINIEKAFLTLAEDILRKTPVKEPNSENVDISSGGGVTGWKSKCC", "UniProt P61018": "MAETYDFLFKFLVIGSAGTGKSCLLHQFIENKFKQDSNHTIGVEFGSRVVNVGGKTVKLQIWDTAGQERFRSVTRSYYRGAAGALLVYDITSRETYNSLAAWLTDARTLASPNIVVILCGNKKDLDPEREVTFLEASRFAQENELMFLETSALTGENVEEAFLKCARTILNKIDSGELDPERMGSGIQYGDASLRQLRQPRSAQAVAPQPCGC"},
  "source": "the supplement of paper PMC12819154",
  "about": "“High-throughput peptide-centric local stability assay extends protein–ligand identification to membrane proteins, tissues and bacteria” (Nature Structural & Molecular Biology, 2025)",
  "note": "Some of the results follow. Most values lie at the level of the controls, where differences are scatter.",
  "data": [
    {"compound": "CN[C@@H]1C[C@H]2O[C@@](C)([C@@H]1OC)n1c3ccccc3c3c4c(c5c6ccccc6n2c5c31)C(=O)NC4 [staurosporine]", "assay": "log2 fold change of tryptic peptide abundance, ligand vs vehicle (limited proteolysis) (log2 ratio); higher = more trypsin-susceptible (destabilized)", "settings": "ligand concentration: 20 uM; sample: K562 cleared lysate; digestion: 4 min, 22 C (HT-PELSA RT4min, Orbitrap Astral)", "values": [
      {"target": "NCALD (peptide sequence: LLQCDPSSAGQF, peptide start residue: 182) (UniProt P61601)", "log2 fold change": -0.259},
      {"target": "UniProt P62140 (peptide sequence: FLNRHDLDLICR, peptide start residue: 234)", "log2 fold change": 0.437},
      {"target": "NOP14 (peptide sequence: GTLSAELTAAHFGGGGGLLHK, peptide start residue: 154) (UniProt P78316)", "log2 fold change": 0.273},
      {"target": "UniProt P61201 (peptide sequence: LIKPYTR, peptide start residue: 362)", "log2 fold change": 0.677},
      {"target": "MFAP1 (peptide sequence: KNEEMEVMEVEDEGR, peptide start residue: 160) (UniProt P55081)", "log2 fold change": 0.47},
      {"target": "UniProt P55916 (peptide sequence: SDRKYSGTMDAYR, peptide start residue: 155)", "log2 fold change": 0.164},
      {"target": "SKP1 (peptide sequence: TFNIKNDFTEEEEAQVRK, peptide start residue: 138) (UniProt P63208)", "log2 fold change": -0.244},
      {"target": "UniProt P62829 (peptide sequence: RKDGVFLYFEDNAGVIVNNK, peptide start residue: 90)", "log2 fold change": -0.18},
      {"target": "TPI1 (peptide sequence: DCGATWVVLGHSERR, peptide start residue: 86) (UniProt P60174)", "log2 fold change": -0.451},
      {"target": "UniProt P62879 (peptide sequence: ACGDSTLTQITAGLDPVGR, peptide start residue: 24)", "log2 fold change": 0.213},
      {"target": "BID (peptide sequence: HLAQVGDSMDR, peptide start residue: 89) (UniProt P55957)", "log2 fold change": 0.192},
      {"target": "ACTR3 (peptide sequence: KEFSIDVGYER, peptide start residue: 265) (UniProt P61158)", "log2 fold change": 0.749},
      {"target": "UniProt P62280 (peptide sequence: RVLLGETGK, peptide start residue: 22)", "log2 fold change": 0.272},
      {"target": "UniProt P61160 (peptide sequence: ILLTEPPMNPTKNR, peptide start residue: 107)", "log2 fold change": 0.435},
      {"target": "UniProt P61923 (peptide sequence: YYDDTYPSVKEQK, peptide start residue: 30)", "log2 fold change": 0.797},
      {"target": "UniProt P84085 (peptide sequence: VQESADELQK, peptide start residue: 100)", "log2 fold change": -0.0342},
      {"target": "UniProt P62753 (peptide sequence: GCIVDANLSVLNLVIVK, peptide start residue: 99)", "log2 fold change": -0.302},
      {"target": "UniProt P62241 (peptide sequence: TRIIDVVYNASNNELVR, peptide start residue: 76)", "log2 fold change": 0.159},
      {"target": "RPS27A (peptide sequence: YYKVDENGKISR, peptide start residue: 105) (UniProt P62979)", "log2 fold change": -0.249},
      {"target": "UniProt P60709 (peptide sequence: GYSFTTTAEREIVR, peptide start residue: 197)", "log2 fold change": 0.267},
      {"target": "UniProt P63241 (peptide sequence: LPEGDLGKEIEQK, peptide start residue: 114)", "log2 fold change": 0.288},
      {"target": "MRPS36 (peptide sequence: VVQVVKPHTPLIR, peptide start residue: 12) (UniProt P82909)", "log2 fold change": -0.242},
      {"target": "UniProt P57729 (peptide sequence: ATIGVDFALK, peptide start residue: 56)", "log2 fold change": -0.0141},
      {"target": "PER3 (peptide sequence: ILMTYQVPER, peptide start residue: 1115) (UniProt P56645)", "log2 fold change": -0.13},
      {"target": "KLF3 (peptide sequence: SDHLALHR, peptide start residue: 389) (UniProt P57682)", "log2 fold change": 0.427},
      {"target": "FAU (peptide sequence: RFVNVVPTFGK, peptide start residue: 115) (UniProt P62861)", "log2 fold change": 0.0931},
      {"target": "UniProt P84103 (peptide sequence: VELSNGEK, peptide start residue: 78)", "log2 fold change": -0.501},
      {"target": "UniProt P61026 (peptide sequence: AFLTLAEDILR, peptide start residue: 162)", "log2 fold change": -0.145},
      {"target": "RAB4B (peptide sequence: TLASPNIVVILCGNKK, peptide start residue: 108) (UniProt P61018)", "log2 fold change": 0.394}
    ]}
  ]
}
